Measurements reported in PMC9351137.
Results are given in words; binding and its absence hold for the method and conditions named. In cells and extracts the contact can be indirect. Some results given as binding are weak or reduced against the parent protein; the word gives no strength. One block for each molecule: values may come before it.

The chains behind the UniProt entries cited, without tags or fusion partners.
UniProt O96019: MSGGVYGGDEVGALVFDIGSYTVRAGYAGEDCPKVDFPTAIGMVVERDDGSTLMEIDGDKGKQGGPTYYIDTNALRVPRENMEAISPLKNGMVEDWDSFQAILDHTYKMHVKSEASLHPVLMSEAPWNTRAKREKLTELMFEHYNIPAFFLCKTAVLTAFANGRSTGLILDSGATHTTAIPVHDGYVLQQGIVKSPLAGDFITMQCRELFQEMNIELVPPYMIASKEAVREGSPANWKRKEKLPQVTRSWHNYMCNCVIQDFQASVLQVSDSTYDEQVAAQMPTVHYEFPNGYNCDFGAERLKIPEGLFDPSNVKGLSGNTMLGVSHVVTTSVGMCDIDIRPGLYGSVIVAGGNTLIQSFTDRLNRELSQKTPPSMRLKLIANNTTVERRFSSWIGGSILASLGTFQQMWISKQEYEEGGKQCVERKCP
UniProt Q92993: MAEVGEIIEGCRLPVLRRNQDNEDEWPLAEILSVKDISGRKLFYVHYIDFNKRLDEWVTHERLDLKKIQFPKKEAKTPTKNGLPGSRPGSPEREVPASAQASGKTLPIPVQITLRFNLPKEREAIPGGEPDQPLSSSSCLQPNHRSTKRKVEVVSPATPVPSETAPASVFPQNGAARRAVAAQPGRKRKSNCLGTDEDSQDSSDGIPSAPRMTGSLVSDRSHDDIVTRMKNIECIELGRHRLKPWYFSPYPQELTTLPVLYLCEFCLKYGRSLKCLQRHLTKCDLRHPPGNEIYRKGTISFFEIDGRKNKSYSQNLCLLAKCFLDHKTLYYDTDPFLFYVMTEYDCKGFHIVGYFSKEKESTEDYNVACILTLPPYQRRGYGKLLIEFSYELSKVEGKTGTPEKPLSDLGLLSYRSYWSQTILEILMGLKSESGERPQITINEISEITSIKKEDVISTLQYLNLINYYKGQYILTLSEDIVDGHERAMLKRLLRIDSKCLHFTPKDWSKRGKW
UniProt Q9UBU8: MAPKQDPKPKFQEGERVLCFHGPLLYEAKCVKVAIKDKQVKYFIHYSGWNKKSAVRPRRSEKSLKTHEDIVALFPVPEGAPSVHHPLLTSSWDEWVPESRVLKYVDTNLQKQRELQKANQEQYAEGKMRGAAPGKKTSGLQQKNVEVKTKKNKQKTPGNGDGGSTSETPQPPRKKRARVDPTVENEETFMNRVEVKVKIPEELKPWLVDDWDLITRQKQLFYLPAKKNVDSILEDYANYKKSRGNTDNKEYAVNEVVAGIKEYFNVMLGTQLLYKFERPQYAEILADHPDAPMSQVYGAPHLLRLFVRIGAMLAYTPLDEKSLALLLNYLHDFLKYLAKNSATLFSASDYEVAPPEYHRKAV
UniProt O95235: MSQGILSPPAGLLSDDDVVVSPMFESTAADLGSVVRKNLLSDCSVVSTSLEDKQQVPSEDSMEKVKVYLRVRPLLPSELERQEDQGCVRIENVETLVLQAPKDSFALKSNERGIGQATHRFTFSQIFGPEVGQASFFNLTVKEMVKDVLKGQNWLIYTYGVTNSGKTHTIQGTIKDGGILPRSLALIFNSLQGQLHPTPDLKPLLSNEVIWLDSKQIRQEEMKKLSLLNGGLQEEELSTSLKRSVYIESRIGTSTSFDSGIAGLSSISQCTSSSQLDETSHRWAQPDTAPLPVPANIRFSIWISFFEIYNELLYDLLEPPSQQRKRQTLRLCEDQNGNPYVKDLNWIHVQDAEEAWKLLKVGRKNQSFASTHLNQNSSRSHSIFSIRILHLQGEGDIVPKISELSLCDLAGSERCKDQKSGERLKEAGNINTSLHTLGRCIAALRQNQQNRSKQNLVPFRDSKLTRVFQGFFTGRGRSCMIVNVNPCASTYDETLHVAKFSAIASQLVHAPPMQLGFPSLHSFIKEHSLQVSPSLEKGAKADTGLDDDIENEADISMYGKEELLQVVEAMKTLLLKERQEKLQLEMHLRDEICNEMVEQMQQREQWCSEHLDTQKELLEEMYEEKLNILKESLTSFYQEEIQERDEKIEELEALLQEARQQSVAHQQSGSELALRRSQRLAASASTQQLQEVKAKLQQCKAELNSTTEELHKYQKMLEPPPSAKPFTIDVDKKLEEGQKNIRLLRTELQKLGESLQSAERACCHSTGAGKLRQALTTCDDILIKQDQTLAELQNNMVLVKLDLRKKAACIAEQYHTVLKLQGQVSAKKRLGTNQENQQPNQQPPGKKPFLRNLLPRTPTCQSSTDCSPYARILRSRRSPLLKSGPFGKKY
UniProt Q96GD4: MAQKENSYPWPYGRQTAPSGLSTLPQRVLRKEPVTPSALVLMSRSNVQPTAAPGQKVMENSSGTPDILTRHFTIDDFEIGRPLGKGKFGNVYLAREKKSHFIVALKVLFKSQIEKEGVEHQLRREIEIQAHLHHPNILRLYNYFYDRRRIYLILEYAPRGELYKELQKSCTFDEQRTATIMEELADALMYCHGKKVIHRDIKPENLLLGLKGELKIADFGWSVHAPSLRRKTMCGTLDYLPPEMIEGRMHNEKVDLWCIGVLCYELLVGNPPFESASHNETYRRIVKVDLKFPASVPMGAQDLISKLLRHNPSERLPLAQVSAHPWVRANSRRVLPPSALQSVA
UniProt O14578: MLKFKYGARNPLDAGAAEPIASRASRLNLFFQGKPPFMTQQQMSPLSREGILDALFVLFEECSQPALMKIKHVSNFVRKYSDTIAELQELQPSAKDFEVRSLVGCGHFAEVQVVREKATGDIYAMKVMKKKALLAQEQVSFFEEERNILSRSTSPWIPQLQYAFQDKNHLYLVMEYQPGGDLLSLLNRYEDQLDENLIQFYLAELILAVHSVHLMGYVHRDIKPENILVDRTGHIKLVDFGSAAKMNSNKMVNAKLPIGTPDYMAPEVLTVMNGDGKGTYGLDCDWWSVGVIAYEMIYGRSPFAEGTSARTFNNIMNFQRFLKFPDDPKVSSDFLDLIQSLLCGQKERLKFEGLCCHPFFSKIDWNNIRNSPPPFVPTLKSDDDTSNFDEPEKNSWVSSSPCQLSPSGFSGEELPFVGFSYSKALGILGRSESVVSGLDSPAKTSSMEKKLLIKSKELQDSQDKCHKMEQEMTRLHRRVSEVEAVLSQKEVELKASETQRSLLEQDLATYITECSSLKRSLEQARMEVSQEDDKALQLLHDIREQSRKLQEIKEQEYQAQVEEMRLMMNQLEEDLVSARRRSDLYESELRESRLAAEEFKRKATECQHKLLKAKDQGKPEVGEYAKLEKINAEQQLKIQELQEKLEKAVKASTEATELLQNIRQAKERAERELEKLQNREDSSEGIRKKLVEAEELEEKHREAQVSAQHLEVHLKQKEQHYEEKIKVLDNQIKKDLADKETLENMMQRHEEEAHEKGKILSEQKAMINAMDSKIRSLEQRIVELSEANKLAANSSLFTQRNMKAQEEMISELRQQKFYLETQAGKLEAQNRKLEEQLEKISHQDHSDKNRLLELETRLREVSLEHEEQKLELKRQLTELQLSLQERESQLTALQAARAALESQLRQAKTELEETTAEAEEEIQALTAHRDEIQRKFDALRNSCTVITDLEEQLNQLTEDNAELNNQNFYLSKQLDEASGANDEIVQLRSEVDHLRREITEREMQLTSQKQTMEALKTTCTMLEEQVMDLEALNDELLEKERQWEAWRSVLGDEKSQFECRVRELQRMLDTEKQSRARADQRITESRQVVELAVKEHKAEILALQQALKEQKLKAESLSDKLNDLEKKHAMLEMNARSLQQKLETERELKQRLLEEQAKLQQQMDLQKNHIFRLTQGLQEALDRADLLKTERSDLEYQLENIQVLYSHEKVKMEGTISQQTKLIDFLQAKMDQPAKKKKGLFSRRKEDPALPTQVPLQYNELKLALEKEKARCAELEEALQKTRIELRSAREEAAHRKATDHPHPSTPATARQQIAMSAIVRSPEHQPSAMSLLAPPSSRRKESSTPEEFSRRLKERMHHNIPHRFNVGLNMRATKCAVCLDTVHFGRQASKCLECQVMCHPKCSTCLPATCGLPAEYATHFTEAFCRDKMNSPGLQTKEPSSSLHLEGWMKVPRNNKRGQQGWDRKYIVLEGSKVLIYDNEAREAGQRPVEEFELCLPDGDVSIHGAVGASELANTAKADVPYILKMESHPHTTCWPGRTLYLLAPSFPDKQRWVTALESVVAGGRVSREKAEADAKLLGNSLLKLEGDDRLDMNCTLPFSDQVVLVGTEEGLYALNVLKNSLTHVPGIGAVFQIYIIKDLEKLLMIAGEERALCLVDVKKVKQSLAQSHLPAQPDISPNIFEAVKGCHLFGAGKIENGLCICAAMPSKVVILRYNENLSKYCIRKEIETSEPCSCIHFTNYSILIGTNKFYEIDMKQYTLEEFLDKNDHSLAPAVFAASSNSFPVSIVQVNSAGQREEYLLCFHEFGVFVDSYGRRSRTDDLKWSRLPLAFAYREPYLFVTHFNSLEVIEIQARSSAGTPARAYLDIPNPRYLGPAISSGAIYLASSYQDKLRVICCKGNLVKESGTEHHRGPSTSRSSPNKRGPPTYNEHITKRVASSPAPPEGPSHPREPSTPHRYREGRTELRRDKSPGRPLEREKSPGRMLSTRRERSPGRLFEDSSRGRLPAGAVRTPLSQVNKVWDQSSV
UniProt Q8WUM4: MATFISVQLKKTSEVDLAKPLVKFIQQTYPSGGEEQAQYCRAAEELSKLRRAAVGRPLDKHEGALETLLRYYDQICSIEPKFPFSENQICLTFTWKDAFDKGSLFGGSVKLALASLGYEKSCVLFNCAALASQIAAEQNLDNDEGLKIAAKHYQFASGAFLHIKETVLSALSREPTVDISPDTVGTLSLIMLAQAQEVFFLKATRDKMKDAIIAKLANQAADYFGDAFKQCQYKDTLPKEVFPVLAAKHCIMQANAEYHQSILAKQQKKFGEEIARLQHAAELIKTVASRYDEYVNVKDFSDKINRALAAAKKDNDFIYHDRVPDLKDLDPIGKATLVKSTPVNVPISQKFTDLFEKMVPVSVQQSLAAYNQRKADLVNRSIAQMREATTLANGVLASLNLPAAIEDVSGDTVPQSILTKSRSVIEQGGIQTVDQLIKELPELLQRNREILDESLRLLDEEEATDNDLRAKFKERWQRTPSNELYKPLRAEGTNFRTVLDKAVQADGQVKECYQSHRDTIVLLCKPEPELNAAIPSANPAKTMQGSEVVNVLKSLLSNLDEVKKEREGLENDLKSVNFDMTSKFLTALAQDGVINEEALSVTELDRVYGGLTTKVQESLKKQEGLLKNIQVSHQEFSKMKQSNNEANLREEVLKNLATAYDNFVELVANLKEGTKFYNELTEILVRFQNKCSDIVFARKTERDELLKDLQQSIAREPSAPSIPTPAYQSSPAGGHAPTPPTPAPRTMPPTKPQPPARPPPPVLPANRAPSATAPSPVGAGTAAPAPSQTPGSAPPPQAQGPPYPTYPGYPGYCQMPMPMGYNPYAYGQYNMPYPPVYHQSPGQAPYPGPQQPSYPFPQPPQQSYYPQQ

What was measured:
[1] = target: BAF53a (human (endogenous in HeLa)) (UniProt O96019); experiment: co-IP; rabbit polyclonal antibodies (Abcam) against BAF53a or Tip60 and beads; input: chromatin-free cytosolic (S2) fraction (2 mg/ml) of HeLa cells synchronized in telophase (thymidine/nocodazole); negative control without antibody; Western blot; three independent IPs
[2] = target: Tip60 (human (endogenous in HeLa)) (UniProt Q92993); experiment: as above

Molecule: MRG15 (from UniProt Q9UBU8 1-362)
binding [1]: binds
binding [2]: binds

Molecule: Tip60 (from UniProt Q92993 1-513)
binding [1]: binds

Molecule: MKLP2 (from UniProt O95235 1-890)
binding [1]: binds
binding [2]: binds

Molecule: Aurora B (from UniProt Q96GD4 1-344)
binding [1]: binds
binding [2]: binds

B1: anillin (protein, UniProt Q9NQW6 1-1124)
chain: MDPFTEKLLERTRARRENLQRKMAERPTAAPRSMTHAKRARQPLSEASNQQPLSGGEEKSCTKPSPSKKRCSDNTEVEVSNLENKQPVESTSAKSCSPSPVSPQVQPQAADTISDSVAVPASLLGMRRGLNSRLEATAASSVKTRMQKLAEQRRRWDNDDMTDDIPESSLFSPMPSEEKAASPPRPLLSNASATPVGRRGRLANLAATICSWEDDVNHSFAKQNSVQEQPGTACLSKFSSASGASARINSSSVKQEATFCSQRDGDASLNKALSSSADDASLVNASISSSVKATSPVKSTTSITDAKSCEGQNPELLPKTPISPLKTGVSKPIVKSTLSQTVPSKGELSREICLQSQSKDKSTTPGGTGIKPFLERFGERCQEHSKESPARSTPHRTPIITPNTKAIQERLFKQDTSSSTTHLAQQLKQERQKELACLRGRFDKGNIWSAEKGGNSKSKQLETKQETHCQSTPLKKHQGVSKTQSLPVTEKVTENQIPAKNSSTEPKGFTECEMTKSSPLKITLFLEEDKSLKVTSDPKVEQKIEVIREIEMSVDDDDINSSKVINDLFSDVLEEGELDMEKSQEEMDQALAESSEEQEDALNISSMSLLAPLAQTVGVVSPESLVSTPRLELKDTSRSDESPKPGKFQRTRVPRAESGDSLGSEDRDLLYSIDAYRSQRFKETERPSIKQVIVRKEDVTSKLDEKNNAFPCQVNIKQKMQELNNEINMQQTVIYQASQALNCCVDEEHGKGSLEEAEAERLLLIATGKRTLLIDELNKLKNEGPQRKNKASPQSEFMPSKGSVTLSEIRLPLKADFVCSTVQKPDAANYYYLIILKAGAENMVATPLASTSNSLNGDALTFTTTFTLQDVSNDFEINIEVYSLVQKKDPSGLDKKKKTSKSKAITPKRLLTSITTKSNIHSSVMASPGGLSAVRTSNFALVGSYTLSLSSVGNTKFVLDKVPFLSSLEGHIYLKIKCQVNSSVEERGFLTIFEDVSGFGAWHRRWCVLSGNCISYWTYPDDEKRKNPIGRINLANCTSRQIEPANREFCARRNTFELITVRPQREDDRETLVSQCRDTLCVTKNWLSADTKEERDLWMQKLNQVLVDIRLWQPDACYKPIGKP
binding [1]: binds
binding [2]: binds

B3: CEP55 (protein, UniProt Q53EZ4 1-464)
chain: MSSRSTKDLIKSKWGSKPSNSKSETTLEKLKGEIAHLKTSVDEITSGKGKLTDKERHRLLEKIRVLEAEKEKNAYQLTEKDKEIQRLRDQLKARYSTTTLLEQLEETTREGERREQVLKALSEEKDVLKQQLSAATSRIAELESKTNTLRLSQTVAPNCFNSSINNIHEMEIQLKDALEKNQQWLVYDQQREVYVKGLLAKIFELEKKTETAAHSLPQQTKKPESEGYLQEEKQKCYNDLLASAKKDLEVERQTITQLSFELSEFRRKYEETQKEVHNLNQLLYSQRRADVQHLEDDRHKTEKIQKLREENDIARGKLEEEKKRSEELLSQVQFLYTSLLKQQEEQTRVALLEQQMQACTLDFENEKLDRQHVQHQLHVILKELRKARNQITQLESLKQLHEFAITEPLVTFQGETENREKVAASPKSPTAALNESLVECPKCNIQYPATEHRDLLVHVEYCSK
binding [1]: binds
binding [2]: binds

Next, values leading:

binding [1]: binds
binding [2]: binds
Molecule: citron kinase (from UniProt O14578 1-2027)

binding [1]: no binding
binding [2]: no binding
Molecule: Alix (from UniProt Q8WUM4 1-868)

binding [1]: binds
binding [2]: binds
B2: spastin (protein, UniProt Q9UBP0 1-616)
chain: MNSPGGRGKKKGSGGASNPVPPRPPPPCLAPAPPAAGPAPPPESPHKRNLYYFSYPLFVGFALLRLVAFHLGLLFVWLCQRFSRALMAAKRSSGAAPAPASASAPAPVPGGEAERVRVFHKQAFEYISIALRIDEDEKAGQKEQAVEWYKKGIEELEKGIAVIVTGQGEQCERARRLQAKMMTNLVMAKDRLQLLEKMQPVLPFSKSQTDVYNDSTNLACRNGHLQSESGAVPKRKDPLTHTSNSLPRSKTVMKTGSAGLSGHHRAPSYSGLSMVSGVKQGSGPAPTTHKGTPKTNRTNKPSTPTTATRKKKDLKNFRNVDSNLANLIMNEIVDNGTAVKFDDIAGQDLAKQALQEIVILPSLRPELFTGLRAPARGLLLFGPPGNGKTMLAKAVAAESNATFFNISAASLTSKYVGEGEKLVRALFAVARELQPSIIFIDEVDSLLCERREGEHDASRRLKTEFLIEFDGVQSAGDDRVLVMGATNRPQELDEAVLRRFIKRVYVSLPNEETRLLLLKNLLCKQGSPLTQKELAQLARMTDGYSGSDLTALAKDAALGPIRELKPEQVKNMSASEMRNIRLSDFTESLKKIKRSVSPQTLEAYIRWNKDFGDTTV
